From paper PMC11924114 come the findings set out here.

Amino acid sequences for entries named in this document (tags omitted).
UniProt Q9ULW0: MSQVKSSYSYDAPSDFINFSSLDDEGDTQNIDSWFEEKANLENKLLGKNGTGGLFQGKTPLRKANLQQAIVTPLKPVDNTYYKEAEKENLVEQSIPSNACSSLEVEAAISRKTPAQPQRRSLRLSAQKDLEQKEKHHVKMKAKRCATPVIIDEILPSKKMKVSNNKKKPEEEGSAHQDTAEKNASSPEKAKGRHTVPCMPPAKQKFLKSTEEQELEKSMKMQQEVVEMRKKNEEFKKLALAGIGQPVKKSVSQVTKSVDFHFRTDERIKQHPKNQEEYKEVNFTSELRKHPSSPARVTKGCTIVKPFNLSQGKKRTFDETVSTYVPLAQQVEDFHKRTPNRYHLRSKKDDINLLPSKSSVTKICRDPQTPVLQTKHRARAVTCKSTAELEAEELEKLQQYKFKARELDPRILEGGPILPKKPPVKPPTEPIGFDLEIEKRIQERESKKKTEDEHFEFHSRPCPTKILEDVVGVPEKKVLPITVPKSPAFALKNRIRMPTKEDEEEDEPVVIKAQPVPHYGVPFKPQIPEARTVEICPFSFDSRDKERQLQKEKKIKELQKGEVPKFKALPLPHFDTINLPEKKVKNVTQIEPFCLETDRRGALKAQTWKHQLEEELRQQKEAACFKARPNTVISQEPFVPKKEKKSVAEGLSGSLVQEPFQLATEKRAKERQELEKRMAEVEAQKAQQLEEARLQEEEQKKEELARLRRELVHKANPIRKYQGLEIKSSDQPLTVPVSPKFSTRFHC
UniProt Q13547: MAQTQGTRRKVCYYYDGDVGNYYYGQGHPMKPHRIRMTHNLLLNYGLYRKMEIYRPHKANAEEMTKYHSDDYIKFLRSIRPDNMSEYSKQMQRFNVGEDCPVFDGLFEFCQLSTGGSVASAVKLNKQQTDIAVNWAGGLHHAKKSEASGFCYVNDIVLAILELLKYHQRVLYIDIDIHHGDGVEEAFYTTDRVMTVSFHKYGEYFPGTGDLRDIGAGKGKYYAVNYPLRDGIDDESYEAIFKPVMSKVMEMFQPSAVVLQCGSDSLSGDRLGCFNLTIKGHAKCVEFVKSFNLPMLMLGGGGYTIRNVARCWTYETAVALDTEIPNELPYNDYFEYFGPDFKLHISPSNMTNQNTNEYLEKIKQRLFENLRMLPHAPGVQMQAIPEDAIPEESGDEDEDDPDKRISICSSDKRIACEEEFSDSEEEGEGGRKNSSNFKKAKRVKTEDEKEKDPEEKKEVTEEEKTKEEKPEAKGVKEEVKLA
UniProt Q92793: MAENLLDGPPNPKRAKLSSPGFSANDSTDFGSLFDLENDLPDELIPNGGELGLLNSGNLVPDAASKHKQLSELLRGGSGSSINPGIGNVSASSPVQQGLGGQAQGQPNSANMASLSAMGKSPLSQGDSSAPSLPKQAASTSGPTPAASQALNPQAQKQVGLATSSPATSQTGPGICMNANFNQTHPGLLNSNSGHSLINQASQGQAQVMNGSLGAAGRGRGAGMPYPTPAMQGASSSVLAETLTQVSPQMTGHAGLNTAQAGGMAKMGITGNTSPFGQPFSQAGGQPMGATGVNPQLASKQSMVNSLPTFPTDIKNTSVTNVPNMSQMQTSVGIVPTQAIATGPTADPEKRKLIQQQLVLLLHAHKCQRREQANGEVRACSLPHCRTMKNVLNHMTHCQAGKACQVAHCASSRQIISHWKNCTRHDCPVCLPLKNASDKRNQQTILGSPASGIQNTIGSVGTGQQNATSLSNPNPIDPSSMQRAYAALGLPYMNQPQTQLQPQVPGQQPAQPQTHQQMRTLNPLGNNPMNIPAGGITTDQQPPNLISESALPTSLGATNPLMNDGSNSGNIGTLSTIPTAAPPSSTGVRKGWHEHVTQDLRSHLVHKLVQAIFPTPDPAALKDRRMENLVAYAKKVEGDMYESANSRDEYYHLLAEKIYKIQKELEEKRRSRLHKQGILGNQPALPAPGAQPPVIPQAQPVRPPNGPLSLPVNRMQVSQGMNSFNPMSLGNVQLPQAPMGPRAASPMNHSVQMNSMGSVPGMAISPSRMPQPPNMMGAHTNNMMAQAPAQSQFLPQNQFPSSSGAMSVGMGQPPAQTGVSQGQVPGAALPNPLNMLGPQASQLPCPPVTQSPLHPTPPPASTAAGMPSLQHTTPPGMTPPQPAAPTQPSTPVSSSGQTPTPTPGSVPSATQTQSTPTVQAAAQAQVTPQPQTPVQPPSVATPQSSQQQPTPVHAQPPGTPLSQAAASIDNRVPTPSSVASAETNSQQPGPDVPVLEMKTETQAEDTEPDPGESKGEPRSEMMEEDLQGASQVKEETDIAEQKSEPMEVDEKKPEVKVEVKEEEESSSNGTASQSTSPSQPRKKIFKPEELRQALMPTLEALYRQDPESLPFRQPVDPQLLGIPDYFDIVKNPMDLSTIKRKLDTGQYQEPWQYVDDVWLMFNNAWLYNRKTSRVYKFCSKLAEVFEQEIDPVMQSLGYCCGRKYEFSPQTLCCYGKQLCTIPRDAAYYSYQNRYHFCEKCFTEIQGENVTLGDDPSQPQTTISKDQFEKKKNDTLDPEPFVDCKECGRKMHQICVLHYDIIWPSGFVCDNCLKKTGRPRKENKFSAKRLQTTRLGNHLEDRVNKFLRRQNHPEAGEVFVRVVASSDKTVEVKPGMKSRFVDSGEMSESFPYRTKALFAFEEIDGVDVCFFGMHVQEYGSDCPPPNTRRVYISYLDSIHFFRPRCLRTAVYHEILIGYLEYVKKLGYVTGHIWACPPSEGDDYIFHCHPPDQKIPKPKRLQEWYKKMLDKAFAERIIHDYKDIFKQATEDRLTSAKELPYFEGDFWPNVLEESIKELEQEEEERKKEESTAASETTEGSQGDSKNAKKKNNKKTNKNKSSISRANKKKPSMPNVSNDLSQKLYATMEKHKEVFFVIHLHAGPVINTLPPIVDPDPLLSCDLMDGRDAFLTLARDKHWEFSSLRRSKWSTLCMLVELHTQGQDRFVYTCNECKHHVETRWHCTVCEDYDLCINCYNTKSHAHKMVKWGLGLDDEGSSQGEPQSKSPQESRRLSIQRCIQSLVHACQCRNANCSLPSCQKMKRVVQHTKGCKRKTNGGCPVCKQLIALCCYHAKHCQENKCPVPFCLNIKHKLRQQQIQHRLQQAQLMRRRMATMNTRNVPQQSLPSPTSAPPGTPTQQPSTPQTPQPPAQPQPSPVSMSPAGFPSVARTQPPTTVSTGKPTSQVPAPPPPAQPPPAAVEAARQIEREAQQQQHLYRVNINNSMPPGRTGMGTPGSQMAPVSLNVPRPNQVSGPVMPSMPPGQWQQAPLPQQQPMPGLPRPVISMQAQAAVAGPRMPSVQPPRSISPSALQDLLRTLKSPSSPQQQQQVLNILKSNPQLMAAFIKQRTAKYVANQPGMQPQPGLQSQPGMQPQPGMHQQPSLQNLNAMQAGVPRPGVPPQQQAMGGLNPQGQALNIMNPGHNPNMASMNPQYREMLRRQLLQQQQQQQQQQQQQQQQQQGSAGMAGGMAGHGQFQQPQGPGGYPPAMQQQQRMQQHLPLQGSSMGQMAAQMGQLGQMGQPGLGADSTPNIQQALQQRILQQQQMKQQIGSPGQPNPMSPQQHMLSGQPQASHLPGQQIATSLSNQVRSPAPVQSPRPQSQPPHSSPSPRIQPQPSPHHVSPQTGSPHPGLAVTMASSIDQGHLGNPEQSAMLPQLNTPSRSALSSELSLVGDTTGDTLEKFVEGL

The experiment addresses HA-TPX2 (UniProt Q9ULW0). The experiment can be described thus: co-IP; HEK293T cells overexpressing a Flag-tagged protein (CBP or HDAC1) and HA-TPX2; IP buffer, protein A/G beads, Western blot.

Results are given in words; binding and its absence hold for the method and conditions named. In cells and extracts the contact can be indirect. Some entries that bind do so weakly or less than the wild type.

On to “Flag-HDAC1 (from UniProt Q13547 1-482) (enzyme)”, for which the binding entry is reported as “binds”.
In the case of “Flag-CBP (from UniProt Q92793 1-2442) (enzyme)” it was “binds”.
